# Reference: PubChem BioAssay AID624297 (National Center for Advancing Translational Sciences (NCATS), 2012)
# In all, about 340,000 compounds went through this assay and about 6,200 (1.8%) were called active. Inconclusive means that the source gave no clear call. Such entries were picked first, then a sample of the others. Calls follow the shape of the dose curve; as a rule, active = well fitted activation curve with a large enough effect; inconclusive = small, poorly fitted or top-dose-only effect; inactive = no such curve, though single readings can be large or run the other way. Where the call is inconclusive, the potency comes from a doubtful curve fit.
# Assay: A quantitative high throughput screen for small molecules that induce DNA re-replication in SW480 colon adenocarcinoma cells. Also: nearly all actives have a fitted effect of over 55% in size. As to re-replication activation: % of control where 0% means no effect.
# Conditions: Hoechst DNA content imaging, 48 h; re-replication activation: at 46.1 µM (top of the series) unless noted
# How it was run: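 Hoechst fluorescence of nuclei (405 nm excitation, 500-530 nm emission) measured by plate-scanning imager after 48 hr compound exposure at 37 C; re-replication scored as increased number of nuclei with elevated intensity.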
# Potency is read from the fitted curve at half-maximal effect.
Structure (SMILES),Potency,re-replication activation
CC(C)Oc1ccc(/C(O)=C2/C(=O)C(=O)N(CCN3CCNCC3)C2c2ccc(C(C)C)cc2)cc1 (configuration not stated),inactive,–
c1ccc(CN2CCN(c3nc(-c4ccccc4)nc(-n4ccnc4)n3)CC2)cc1,active: 20.6 µM,–
Cc1ccc(-n2c(C)csc2=N)cc1,"inconclusive: 3.55 µM [activator, full curve, poor fit]",–
CCn1ncc(/C=N\NC(=O)COc2ccccc2)c1C,"inconclusive: 23.1 µM [activator, partial curve, poor fit]",–
CC(C)(C)Nc1nc(SCC(=O)Nc2ccccc2Cl)nc(N2CCOCC2)n1,"inconclusive: 32.6 µM [activator, partial curve, poor fit]",–
CCCc1ccc2oc(C(=O)N(Cc3ccncc3)CC3CCCO3)c(C)c2c1 (configuration not stated),"inconclusive: 25.9 µM [activator, partial curve, poor fit]",–
Cc1cccn2c(=O)c(/C=C(\C#N)C(=O)NCc3ccco3)c(N3CCOCC3)nc12,"inconclusive: 1.84 µM [activator, full curve]",–
O=C(Nc1ccncc1)c1ccc(Cl)c(S(=O)(=O)N2CCc3ccccc32)c1,inactive,–
Cc1ccc(S(=O)(=O)Oc2ccc(C)cc2/C=N/N=C2\NC(=O)C(C)S2)cc1 (configuration not stated),inactive,–
CCOc1ccccc1CNC(=O)CCNC(=O)Cn1ccc2ccccc2c1=O,inactive,–
COc1nc(-c2ccccc2)cc(-c2ccc(OC)c(OC)c2)n1,"inconclusive: 23.1 µM [activator, single point]",–
CC(=O)Nc1ccc(S(=O)(=O)N2c3ccc(F)cc3CCC2C)cc1 (configuration not stated),active: 18.4 µM,–
COc1cccc(CC(=O)N2CCC(n3nccc3NC(=O)C3CCOC3)CC2)c1 (configuration not stated),inactive,–
COC(=O)c1ccc(NC(=O)CSc2nc(N)c(NC(=O)c3ccc(Br)o3)c(=O)[nH]2)cc1,"inconclusive: 20.6 µM [activator, partial curve, poor fit]",–
O=C(O)/C=C/c1ccc(OCc2cccc(F)c2)cc1,inactive,–
CC(C)c1[nH]nc2c1C(C1C=CCCC1)C(C#N)=C(N)O2 (configuration not stated),"inconclusive: 20.6 µM [activator, partial curve, poor fit]",–
CN(C)CCCNC(=O)/C(=C/c1ccc(-c2ccc([N+](=O)[O-])cc2)o1)NC(=O)c1ccccc1,"inconclusive: 29.1 µM [activator, single point]",–
CCCn1c(N)c(C(=O)COC(=O)c2cccc(S(=O)(=O)N3CCOCC3)c2)c(=O)[nH]c1=O,inactive,–
COC(=O)c1ccc(CSC(=N)N)o1,"inconclusive: 29.1 µM [activator, single point]",–
NC(=O)C1CCN(C(=O)c2ccc(Cl)c(S(=O)(=O)NCc3ccco3)c2)CC1,"inconclusive: 14.6 µM [activator, single point]",–
N#Cc1ccc(C(=O)N(Cc2ccco2)c2c(N)n(Cc3ccccc3)c(=O)[nH]c2=O)cc1,"inconclusive: 29.1 µM [activator, single point]",–
CCCOc1ccccc1-n1sc2c(c1=S)-c1cc(OC)cc3c1N(C(=O)C3=O)C2(C)C,"inconclusive: 29.1 µM [activator, single point]",–
COc1cccc(CNS(=O)(=O)c2ccc3c(c2)CC(C)N3C(=O)C2CC2)c1 (configuration not stated),"inconclusive: 16.4 µM [activator, partial curve, poor fit]",–

Structure (SMILES),Potency,re-replication activation
Cc1cccn2c(=O)c3cc(C(=O)NCCc4ccccc4)c(=N)n(Cc4ccco4)c3nc12,active: 6.51 µM,–
COc1ccc(NC(=O)CCNS(=O)(=O)c2ccc3c(c2)c(=O)n(C)c(=O)n3C)c(OC)c1,"inconclusive: 0.461 µM [activator, full curve, poor fit]",–
CC(NCc1cc(Br)ccc1OCC(=O)NCc1ccccc1)c1ccccc1 (configuration not stated),"inconclusive: 29.1 µM [activator, single point]",–
C/C(=N\NC(=O)c1ccc(O)cc1)c1cccc(NC(=O)c2ccccc2C)c1,"inconclusive: 29.1 µM [activator, single point]",–
COc1ccc(/C=N/NC(=O)Nc2cccc3nsnc23)cc1OC,"inconclusive: 20.6 µM [activator, single point]",–
CC1(O)CC(c2ccc(Cl)cc2)=NN1C(=O)c1ccc([N+](=O)[O-])cc1 (configuration not stated),"inconclusive: 29.1 µM [activator, single point]",–
O=C1c2cccc3c([N+](=O)[O-])ccc(c23)C(=O)N1CCc1ccccn1,"inconclusive: 16.4 µM [activator, partial curve, poor fit]",–
O=C(NCCCN1CCCCC1)C1CCN(S(=O)(=O)N2CCC3(CC2)OCCO3)CC1,inactive,–
O=C(CN1CCOCC1)N/N=C/C=C/c1ccccc1,"inconclusive: 6.51 µM [activator, partial curve, poor fit]",–
C/C(=N\Nc1nc(Nc2ccccc2)nc(N2CCOCC2)n1)c1cccs1,"inconclusive: 18.4 µM [activator, single point]",–
NC(=Nc1ccccc1)N(c1ccccc1)c1ccccc1,"inconclusive: 20.6 µM [activator, single point]",–
COc1ccc2nc3c(cc2c1)c(NC(=O)C1CCCO1)nn3CC(C)C (configuration not stated),"inconclusive: 23.1 µM [activator, single point]",–
CN(C(=O)c1ccc(NC(=O)Cc2ccc(NC(=O)C3CCCN(S(=O)(=O)c4cccc([N+](=O)[O-])c4)C3)cc2)cc1)C1CCCC1 (configuration not stated),"inconclusive: 18.4 µM [activator, single point]",–
CCN(CC)CCn1c2ccccc2c2cnc(N)c(C#N)c21,"inconclusive: 16.4 µM [activator, partial curve, poor fit]",–
N#Cc1ccc(CN2C(=O)NC3(CCCCCC3)C2=O)cc1,inactive,–
CSc1cccc(NC(=O)N2CCc3ccc(NC(=O)c4ccccn4)cc3C2)c1,"inconclusive: 14.6 µM [activator, single point]",–
COC(=O)C1CC2=C(CC(C)(C)CC2=O)N(c2ccccc2)C1=O (configuration not stated),inactive,–
O=P(O)(CCc1ccccn1)CN1CCOCC1,inactive,–
CN1CC=C2C(C#N)=C(N)C(C#N)(C#N)C(c3ccsc3)C2C1 (configuration not stated),inactive,–
Cc1ccc(NC(=O)CCc2c[nH]c3ccccc23)nc1,active: 3.26 µM,–
CC(C)N1CCN(Cc2ccc(OCc3ccccc3)cc2)CC1CCO (configuration not stated),"inconclusive: 7.31 µM [activator, partial curve, poor fit]",–
Cc1cccc(NC(=S)NCCc2ccccc2)n1,"inconclusive: 14.6 µM [activator, partial curve, poor fit]",–
O=C(NCCCOc1cccc(CN2CCCCC2)c1)c1ccc(Cl)c(Cl)c1,active: 29.1 µM,–

Structure (SMILES),Potency,re-replication activation
C=CCc1cccc2cc(C(=O)NNC(=O)CC#N)c(=O)oc12,"inconclusive: 23.1 µM [activator, single point]",–
CC(=O)NC12CC3CC(C1)CC(C(=O)N1CCN(S(=O)(=O)c4ccc(C(C)C)cc4)CC1)(C3)C2,"inconclusive: 0.0206 µM [activator, full curve, poor fit]",–
O=C(Cc1ccc(NC(=O)C2CCCN(C(=O)c3ccccc3)C2)cc1)Nc1ccc(C(=O)N2CCOCC2)cc1 (configuration not stated),"inconclusive: 0.13 µM [activator, full curve, poor fit]",–
COc1ccccc1C(CCNCc1ccc(N(C)C)cc1)c1ccc(OC(C)C)cc1 (configuration not stated),"inconclusive: 16.4 µM [activator, partial curve, poor fit]",–
CC(=O)/C=C(/C)NC(Cc1c[nH]c2ccccc12)C(=O)O (configuration not stated),"inconclusive: 23.1 µM [activator, single point]",–
O=C(NCCc1ccc(F)cc1)C(=O)NCC1CCCN1S(=O)(=O)c1ccccc1 (configuration not stated),"inconclusive: 16.4 µM [activator, single point]",–
NC(=O)CSc1nnc(-c2cc(-c3cccs3)nc3ccccc23)o1,"inconclusive: 18.4 µM [activator, single point]",–
COc1ccc(N(C)S(=O)(=O)c2cccc(C(=O)Nc3ccc(-n4cnnn4)cc3)c2)cc1,inactive,–
COc1ccc(OC)c(NC(=O)CCOc2cccc(C)c2)c1,"inconclusive: 29.1 µM [activator, single point]",–
CSc1nc2ccccc2n1CC(=O)Nc1c(C)cccc1C,"inconclusive: 10.3 µM [activator, partial curve]",–
O=C1ON(Cc2ccccc2)C(c2ccccc2)N1c1ccccc1 (configuration not stated),inactive,–
CC(=O)Nc1ccccc1OCc1nnc(-c2ccccc2Cl)o1,inactive,–
CCCCNc1ncnc2c1cnn2Cc1ccc(Cl)cc1,"inconclusive: 23.1 µM [activator, single point]",–
O=S(=O)(NCC1CCCO1)c1ccc(S(=O)(=O)N2CCCC2)cc1 (configuration not stated),–,inconclusive: 29.7% [activator]
Cc1ccc2c(C(=O)CNc3nncs3)c(C)[nH]c2c1,inactive,–
CC(C)C(=O)NC(c1ccco1)c1c(O)ccc2ccccc12 (configuration not stated),inactive,–
FC(F)(F)c1ccc(N2CCN(c3cc(-c4ccccc4)nc4ncnn34)CC2)nc1,inactive,–
CCOc1cc(/C=C(/C#N)c2nc3ccccc3[nH]2)ccc1Oc1ccc([N+](=O)[O-])cn1,"inconclusive: 23.1 µM [activator, single point]",–
COc1cccc(OC)c1C(=O)Nc1cc(C)nn1-c1nc2ccccc2[nH]1,"inconclusive: 18.4 µM [activator, single point]",–
COC(=O)C1=C(O)/C(=C\c2ccc(OCC(=O)Nc3ccc(OC)cc3)cc2)N=C1C,active: 14.6 µM,–
CCCCCN(C(=O)CN1CCC(Cc2ccccc2)CC1)c1c(N)n(CCCC)c(=O)[nH]c1=O,"inconclusive: 25.9 µM [activator, single point]",–

# Some of the entries above, reformatted.
Structure (SMILES)	Potency	re-replication activation
O=C1ON(Cc2ccccc2)C(c2ccccc2)N1c1ccccc1 (configuration not stated)	inactive	–
CC(C)C(=O)NC(c1ccco1)c1c(O)ccc2ccccc12 (configuration not stated)	inactive	–
FC(F)(F)c1ccc(N2CCN(c3cc(-c4ccccc4)nc4ncnn34)CC2)nc1	inactive	–
CCOc1cc(/C=C(/C#N)c2nc3ccccc3[nH]2)ccc1Oc1ccc([N+](=O)[O-])cn1	inconclusive: 23.1 µM [activator, single point]	–
COC(=O)C1=C(O)/C(=C\c2ccc(OCC(=O)Nc3ccc(OC)cc3)cc2)N=C1C	active: 14.6 µM	–
